# Data from patent US20080045506A1 (GLAXO GROUP LIMITED, priority 2004, published 2008).
# Protein sequences, listed by entry. Tags and fused reporters are not part of them. Lines headed by an entry give the natural chain unless they say otherwise; changes in a name come on top.
# UniProt Q9Y5N1: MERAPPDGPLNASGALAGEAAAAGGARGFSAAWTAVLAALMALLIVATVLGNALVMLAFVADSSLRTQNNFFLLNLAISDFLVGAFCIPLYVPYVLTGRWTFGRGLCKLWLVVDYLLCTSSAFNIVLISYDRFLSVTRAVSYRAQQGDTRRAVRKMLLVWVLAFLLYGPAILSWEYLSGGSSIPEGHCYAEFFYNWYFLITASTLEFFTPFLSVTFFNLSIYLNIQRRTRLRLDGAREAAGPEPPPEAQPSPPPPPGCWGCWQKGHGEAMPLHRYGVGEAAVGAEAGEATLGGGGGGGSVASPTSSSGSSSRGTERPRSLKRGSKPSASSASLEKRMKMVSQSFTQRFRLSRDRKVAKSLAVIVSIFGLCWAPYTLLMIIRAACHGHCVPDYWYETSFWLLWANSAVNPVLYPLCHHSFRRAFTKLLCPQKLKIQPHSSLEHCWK
# UniProt P35367, whole entry: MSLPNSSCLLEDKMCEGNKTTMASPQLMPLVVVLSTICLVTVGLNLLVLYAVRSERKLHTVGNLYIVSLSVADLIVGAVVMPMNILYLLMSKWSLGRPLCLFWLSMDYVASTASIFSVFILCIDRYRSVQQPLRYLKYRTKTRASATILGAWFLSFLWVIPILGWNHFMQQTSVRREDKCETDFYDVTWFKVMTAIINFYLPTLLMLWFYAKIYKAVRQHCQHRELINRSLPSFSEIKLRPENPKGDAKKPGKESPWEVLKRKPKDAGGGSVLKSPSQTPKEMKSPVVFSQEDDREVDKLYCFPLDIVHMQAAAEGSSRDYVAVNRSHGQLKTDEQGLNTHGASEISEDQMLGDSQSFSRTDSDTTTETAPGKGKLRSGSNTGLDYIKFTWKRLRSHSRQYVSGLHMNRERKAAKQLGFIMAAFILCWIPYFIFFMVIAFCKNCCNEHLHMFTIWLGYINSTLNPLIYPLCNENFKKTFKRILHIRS
# Where a name gives a salt, the structure may show the parent alone. Some results were stated once for a whole list of compounds, not compound by compound. At least one structure is not confirmed: it was looked up by name or label, or the drawing left a doubt.
# Assays:
# [1] = target: T1, histamine H3 receptor (Homo sapiens, UniProt Q9Y5N1); test: Histamine H3 functional antagonist assay (method B); format: biochemical; conditions: [35S]-GTPγS SPA, membrane prepared from cultured H3 cells, histamine at EC80, averages of a number of experiments
# T1 construct: expressed in transfected cells; host or cells: CHO K1 cells (pSwitch/pGene GeneSwitch system, mifepristone-induced), clone 3H3; membranes
# From the text: A membrane preparation containing histamine H3 receptors may be prepared in accordance with the following procedures:
# (i) Generation of Histamine H3 Cell Line
# DNA encoding the human histamine H3 gene (Huvar, A. et al. (1999) Mol. Pharmacol. 55(6), 1101-1107) was cloned into a holding vector, pcDNA3.1 TOPO (InVitrogen) and its cDNA was isolated from this vector by restriction digestion of plasmid DNA with the enzymes BamH1 and Not-1 and ligated into the inducible expression vector pGene (InVitrogen) digested with the same enzymes. The GeneSwitch™ system (a system where in transgene expression is switched off in the absence of an inducer and switched on in the presence of an inducer) was performed as described in U.S. Pat. Nos. 5,364,791; 5,874,534; and 5,935,934. […]
# 10-14 days post selection 10 nM Mifepristone (InVitrogen), was added to the culture medium to induce the expression of the receptor. […] Receptor bound antibody was detected by incubation of the cells for 60 minutes on ice with a goat anti rabbit antibody, conjugated with Alexa 488 fluorescence marker (Molecular Probes). Following two further washes with Sorting Medium, cells were filtered through a 50 μm Filcon™ (BD Biosciences) and then analysed on a FACS Vantage SE Flow Cytometer fitted with an Automatic Cell Deposition Unit. […]
# [2] = target: T2, human H1 receptor (Homo sapiens, UniProt P35367); test: Histamine H1 functional antagonist assay; format: cell-based; conditions: FLIPR, CHO cells expressing human H1 receptor, histamine at EC80; Cheng-Prusoff; averages of a number of experiments
# T2 construct: expressed in transfected cells
smiles,measurement,setting,value
"Cc1noc(-c2ccc(N3CC[C@H](C(=O)N4CCCN(CC5CC5)CC4)C3)cn2)n1 [Example E58, hydrochloride]","functional pKi (fpKi), antagonism",[1],> 8.0
same,"functional pKi (fpKi), antagonism",[2],< 6.5
"Cc1nc(-c2ccc(N3CC[C@H](C(=O)N4CCN(CC5CC5)CC4)C3)cn2)no1.Cl [Example E59, 1-(Cyclopropylmethyl)-4-({(3S)-1-[6-(5-methyl-1,2,4-oxadiazol-3-yl)-3-pyridinyl]-3-pyrrolidinyl}caronyl)piperazine hydrochloride]","functional pKi (fpKi), antagonism",[1],> 8.0
same,"functional pKi (fpKi), antagonism",[2],< 6.5
